Laboratory results taken from the supplement of paper PMC10849652.
The other results are listed elsewhere or left out.

Protein sequences, listed by entry. Tags and fused reporters are not part of them. Lines headed by an entry give the natural chain unless they say otherwise; changes in a name come on top.
UniProt Q8NFC6: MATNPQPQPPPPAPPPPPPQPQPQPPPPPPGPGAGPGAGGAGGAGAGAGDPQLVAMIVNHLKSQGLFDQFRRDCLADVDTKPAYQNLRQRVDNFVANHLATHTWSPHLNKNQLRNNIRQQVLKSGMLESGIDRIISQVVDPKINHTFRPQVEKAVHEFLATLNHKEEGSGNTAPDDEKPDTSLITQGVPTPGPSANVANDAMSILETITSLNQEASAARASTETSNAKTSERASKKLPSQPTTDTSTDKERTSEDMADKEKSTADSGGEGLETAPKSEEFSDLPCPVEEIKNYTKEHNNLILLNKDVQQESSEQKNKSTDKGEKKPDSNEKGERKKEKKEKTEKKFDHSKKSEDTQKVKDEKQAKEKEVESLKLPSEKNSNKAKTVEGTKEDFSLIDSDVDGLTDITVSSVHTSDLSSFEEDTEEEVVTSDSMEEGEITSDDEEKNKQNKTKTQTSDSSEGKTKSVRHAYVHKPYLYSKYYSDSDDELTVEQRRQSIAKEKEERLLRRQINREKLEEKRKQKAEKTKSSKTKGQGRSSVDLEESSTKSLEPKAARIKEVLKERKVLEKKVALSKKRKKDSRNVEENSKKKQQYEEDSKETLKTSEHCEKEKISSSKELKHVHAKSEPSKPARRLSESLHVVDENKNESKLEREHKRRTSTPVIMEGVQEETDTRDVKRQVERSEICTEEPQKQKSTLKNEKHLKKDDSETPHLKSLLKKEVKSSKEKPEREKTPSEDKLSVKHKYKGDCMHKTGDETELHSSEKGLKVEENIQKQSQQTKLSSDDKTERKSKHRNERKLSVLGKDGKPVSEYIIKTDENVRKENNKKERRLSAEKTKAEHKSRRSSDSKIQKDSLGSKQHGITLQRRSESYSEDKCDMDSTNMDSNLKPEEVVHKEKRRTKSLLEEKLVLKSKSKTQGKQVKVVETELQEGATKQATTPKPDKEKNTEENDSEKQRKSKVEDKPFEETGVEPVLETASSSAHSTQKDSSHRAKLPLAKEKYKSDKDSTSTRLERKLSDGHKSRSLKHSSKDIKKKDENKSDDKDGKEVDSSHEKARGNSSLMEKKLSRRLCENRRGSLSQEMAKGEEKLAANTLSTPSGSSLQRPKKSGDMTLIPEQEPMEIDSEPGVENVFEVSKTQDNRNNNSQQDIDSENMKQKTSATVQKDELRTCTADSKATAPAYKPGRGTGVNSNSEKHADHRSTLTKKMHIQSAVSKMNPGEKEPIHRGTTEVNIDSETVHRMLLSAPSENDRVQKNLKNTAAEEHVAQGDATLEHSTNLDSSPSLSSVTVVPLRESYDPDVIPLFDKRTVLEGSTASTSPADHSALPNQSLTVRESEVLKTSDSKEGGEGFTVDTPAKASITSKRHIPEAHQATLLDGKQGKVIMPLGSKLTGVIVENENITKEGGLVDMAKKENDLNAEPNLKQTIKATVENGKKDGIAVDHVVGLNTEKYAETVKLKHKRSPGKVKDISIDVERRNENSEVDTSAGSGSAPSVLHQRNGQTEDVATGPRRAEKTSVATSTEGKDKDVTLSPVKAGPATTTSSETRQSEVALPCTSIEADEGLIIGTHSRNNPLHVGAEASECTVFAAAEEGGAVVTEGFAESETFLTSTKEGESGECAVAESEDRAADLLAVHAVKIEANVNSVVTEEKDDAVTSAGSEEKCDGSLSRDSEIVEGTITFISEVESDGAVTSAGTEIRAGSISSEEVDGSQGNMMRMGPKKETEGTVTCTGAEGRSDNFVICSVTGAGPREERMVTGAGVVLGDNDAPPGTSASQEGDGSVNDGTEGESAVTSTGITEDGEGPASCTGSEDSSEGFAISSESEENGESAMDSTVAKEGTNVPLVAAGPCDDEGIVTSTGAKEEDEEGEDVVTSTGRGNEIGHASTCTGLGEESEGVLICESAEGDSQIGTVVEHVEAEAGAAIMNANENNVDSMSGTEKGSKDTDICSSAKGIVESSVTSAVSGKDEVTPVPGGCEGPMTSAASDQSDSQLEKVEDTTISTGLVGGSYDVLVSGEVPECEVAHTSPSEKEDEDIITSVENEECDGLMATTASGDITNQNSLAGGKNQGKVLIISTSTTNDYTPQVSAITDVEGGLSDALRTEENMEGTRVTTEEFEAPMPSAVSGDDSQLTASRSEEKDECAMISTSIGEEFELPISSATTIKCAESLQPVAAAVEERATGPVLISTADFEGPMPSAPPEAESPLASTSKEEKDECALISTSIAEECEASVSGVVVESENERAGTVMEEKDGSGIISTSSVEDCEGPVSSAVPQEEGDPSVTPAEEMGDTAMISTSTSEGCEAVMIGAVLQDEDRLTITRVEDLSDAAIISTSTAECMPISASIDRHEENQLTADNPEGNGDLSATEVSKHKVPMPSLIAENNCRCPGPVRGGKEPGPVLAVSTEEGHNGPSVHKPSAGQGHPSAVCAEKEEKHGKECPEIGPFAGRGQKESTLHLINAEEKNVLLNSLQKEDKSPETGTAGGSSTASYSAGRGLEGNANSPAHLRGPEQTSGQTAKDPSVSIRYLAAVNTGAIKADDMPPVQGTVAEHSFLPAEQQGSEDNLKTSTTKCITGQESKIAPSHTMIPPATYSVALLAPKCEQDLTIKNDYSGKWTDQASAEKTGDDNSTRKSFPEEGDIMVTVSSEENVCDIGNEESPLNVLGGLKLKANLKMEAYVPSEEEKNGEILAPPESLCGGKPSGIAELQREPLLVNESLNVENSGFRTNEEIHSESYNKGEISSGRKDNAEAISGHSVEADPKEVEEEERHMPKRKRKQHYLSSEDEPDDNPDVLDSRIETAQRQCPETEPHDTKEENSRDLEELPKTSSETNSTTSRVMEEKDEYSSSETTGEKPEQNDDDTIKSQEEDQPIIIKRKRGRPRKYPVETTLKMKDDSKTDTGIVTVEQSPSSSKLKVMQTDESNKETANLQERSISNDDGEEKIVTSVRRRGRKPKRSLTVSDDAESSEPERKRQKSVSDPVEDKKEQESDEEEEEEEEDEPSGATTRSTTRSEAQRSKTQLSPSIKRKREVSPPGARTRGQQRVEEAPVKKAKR
UniProt Q4VC05, whole entry, looked up: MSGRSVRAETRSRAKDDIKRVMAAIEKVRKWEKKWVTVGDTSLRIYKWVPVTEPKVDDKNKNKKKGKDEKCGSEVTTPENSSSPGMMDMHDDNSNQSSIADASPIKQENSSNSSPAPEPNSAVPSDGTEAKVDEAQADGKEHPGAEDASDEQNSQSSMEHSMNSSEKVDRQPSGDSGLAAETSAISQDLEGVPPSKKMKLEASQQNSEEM
UniProt Q8N9N5: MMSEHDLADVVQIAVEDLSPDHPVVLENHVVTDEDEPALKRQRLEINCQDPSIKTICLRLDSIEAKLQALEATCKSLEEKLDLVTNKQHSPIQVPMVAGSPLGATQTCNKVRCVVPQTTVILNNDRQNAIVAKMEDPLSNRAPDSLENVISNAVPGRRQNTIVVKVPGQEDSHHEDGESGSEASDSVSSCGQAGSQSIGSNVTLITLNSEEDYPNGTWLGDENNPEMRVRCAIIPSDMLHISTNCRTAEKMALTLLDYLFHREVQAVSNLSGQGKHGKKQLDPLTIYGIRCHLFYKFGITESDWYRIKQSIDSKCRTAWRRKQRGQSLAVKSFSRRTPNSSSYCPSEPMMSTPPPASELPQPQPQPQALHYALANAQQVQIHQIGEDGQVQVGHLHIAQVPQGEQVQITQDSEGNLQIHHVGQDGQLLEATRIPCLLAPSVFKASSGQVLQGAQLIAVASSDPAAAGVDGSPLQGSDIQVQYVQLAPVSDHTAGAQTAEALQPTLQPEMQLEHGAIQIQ
UniProt Q9UL15: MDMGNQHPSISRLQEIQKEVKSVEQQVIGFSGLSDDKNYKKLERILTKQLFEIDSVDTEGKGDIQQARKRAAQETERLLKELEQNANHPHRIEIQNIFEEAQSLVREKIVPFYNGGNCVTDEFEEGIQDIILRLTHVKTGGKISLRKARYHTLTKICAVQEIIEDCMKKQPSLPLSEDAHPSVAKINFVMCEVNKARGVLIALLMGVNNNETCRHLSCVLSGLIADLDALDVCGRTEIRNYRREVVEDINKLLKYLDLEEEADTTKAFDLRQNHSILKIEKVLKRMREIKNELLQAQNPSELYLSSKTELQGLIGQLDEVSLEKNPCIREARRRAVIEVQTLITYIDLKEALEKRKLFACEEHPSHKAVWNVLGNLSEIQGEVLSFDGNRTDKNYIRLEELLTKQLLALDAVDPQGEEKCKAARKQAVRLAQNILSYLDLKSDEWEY
UniProt Q9NYM9: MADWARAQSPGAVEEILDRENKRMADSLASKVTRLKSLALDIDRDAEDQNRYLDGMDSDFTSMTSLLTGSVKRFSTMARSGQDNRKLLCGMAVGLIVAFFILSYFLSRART
UniProt Q8IWZ6: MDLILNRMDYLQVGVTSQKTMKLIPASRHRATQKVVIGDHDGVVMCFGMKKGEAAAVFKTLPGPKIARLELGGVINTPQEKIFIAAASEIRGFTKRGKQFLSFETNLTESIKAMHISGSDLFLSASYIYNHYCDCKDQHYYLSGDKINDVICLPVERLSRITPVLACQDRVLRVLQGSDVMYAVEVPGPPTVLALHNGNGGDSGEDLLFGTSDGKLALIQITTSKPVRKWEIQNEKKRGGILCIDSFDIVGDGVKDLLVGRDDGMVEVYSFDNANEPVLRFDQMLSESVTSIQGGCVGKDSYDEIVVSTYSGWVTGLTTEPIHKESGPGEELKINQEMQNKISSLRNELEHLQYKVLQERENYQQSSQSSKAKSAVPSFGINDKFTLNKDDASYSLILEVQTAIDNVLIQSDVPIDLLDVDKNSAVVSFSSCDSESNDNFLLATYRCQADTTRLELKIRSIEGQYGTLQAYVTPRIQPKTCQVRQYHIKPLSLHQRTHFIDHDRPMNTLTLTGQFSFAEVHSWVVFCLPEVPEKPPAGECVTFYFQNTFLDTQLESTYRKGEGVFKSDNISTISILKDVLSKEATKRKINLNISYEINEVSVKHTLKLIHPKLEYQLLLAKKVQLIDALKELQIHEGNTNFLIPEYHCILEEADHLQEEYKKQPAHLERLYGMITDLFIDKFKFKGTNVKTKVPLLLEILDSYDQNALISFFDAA
UniProt Q6QNY1: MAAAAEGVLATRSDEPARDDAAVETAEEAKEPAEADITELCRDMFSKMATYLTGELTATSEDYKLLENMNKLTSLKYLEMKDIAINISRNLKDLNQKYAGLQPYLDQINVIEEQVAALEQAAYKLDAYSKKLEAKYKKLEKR
UniProt Q9NP55: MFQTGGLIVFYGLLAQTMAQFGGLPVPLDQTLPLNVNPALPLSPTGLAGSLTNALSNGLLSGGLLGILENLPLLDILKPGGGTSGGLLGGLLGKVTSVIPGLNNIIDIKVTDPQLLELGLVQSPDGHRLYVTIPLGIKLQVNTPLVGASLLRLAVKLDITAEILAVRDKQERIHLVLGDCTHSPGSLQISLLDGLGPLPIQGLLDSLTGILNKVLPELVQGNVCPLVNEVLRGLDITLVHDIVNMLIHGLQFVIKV
UniProt Q9BXH1: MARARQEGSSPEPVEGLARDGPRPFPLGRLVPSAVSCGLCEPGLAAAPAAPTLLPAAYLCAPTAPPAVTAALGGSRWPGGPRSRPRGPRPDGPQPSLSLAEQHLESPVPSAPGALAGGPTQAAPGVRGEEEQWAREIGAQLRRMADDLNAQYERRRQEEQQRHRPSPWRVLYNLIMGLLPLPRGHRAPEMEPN
UniProt Q15059, whole entry, looked up: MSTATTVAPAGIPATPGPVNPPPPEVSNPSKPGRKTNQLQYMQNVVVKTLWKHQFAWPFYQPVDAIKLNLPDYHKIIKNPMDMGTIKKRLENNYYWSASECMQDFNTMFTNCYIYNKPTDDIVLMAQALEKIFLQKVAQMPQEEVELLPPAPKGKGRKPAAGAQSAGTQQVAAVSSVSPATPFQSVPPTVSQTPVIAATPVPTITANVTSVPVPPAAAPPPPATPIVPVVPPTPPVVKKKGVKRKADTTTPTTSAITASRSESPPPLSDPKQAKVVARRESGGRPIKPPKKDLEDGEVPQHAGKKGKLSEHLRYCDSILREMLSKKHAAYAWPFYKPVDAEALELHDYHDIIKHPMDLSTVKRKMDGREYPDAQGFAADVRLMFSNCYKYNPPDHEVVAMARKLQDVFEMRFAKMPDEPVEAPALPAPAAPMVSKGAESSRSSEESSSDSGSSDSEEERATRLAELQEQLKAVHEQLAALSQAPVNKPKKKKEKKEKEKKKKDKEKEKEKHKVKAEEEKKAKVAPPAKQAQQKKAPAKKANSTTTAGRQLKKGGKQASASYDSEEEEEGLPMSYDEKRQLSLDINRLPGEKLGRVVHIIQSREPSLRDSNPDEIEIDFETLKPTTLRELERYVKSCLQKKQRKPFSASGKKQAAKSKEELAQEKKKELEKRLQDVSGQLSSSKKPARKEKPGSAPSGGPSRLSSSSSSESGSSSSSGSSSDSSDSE
UniProt Q96B45: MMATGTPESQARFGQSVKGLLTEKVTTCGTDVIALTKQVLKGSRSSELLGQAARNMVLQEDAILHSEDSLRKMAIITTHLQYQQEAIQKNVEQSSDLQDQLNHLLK

Tests used:
Assay in all cases: log2 fold change, soluble protein after heating vs DMSO (PISA); higher = thermal stabilisation; K562 lysate, 10 uM; active = over 0.2 and 3.5 SD of the protein, either way, in both replicates (recomputed)
alvocidib = compound: CN1CC[C@H](c2c(O)cc(O)c3c(=O)cc(-c4ccccc4Cl)oc23)[C@H](O)C1 [alvocidib]
Summary of the method: (§1)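 Dounce homogenisation of K562 pellets in PBS pH 7.4 with 1 mM MgCl2 produced a crude extract, used at 1 mg/mL protein. Exposure to 10 μM compound lasted 30 min, and aliquots were then heated for 3 min across 48°C-58°C, pooled and brought to 0.5% NP-40 at 4°C. The supernatant after 21,000xg for 90 min was quantified by TMTpro 16plex LC-MS/MS with channel sums equalised. Duplicate values are given as log-two fold change in thermal stability relative to solvent controls.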

Tubastatin A = compound: CN1CCc2c(c3ccccc3n2Cc2ccc(C(=O)NO)cc2)C1 [Tubastatin A]
Summary of the method: as §1

[1] = compound: CNC(=O)C1=CC=CC=C1NC2=NC(=NC=C2Cl)NC3=C(C=C(C=C3)N4CCOCC4)OC
Summary of the method: as §1

defactinib = compound: CNC(=O)c1ccc(Nc2ncc(C(F)(F)F)c(NCc3nccnc3N(C)S(C)(=O)=O)n2)cc1 [defactinib]
Summary of the method: as §1

[2] = compound: CNc1nc(-c2ccc3c(N)n[nH]c3c2)cc(N2C[C@@H](C(=O)NC3CCCCC3)CC[C@H]2C)n1
Summary of the method: as §1

encorafenib = compound: COC(=O)N[C@@H](C)CNc1nccc(-c2cn(C(C)C)nc2-c2cc(Cl)cc(NS(C)(=O)=O)c2F)n1 [encorafenib]
Summary of the method: as §1

[3] = compound: COC(=O)[C@H](CCSC)NC(=O)C1=C(C=C(C=C1)NC[C@H](CS)N)C2=CC=CC=C2
Summary of the method: as §1

alisertib = compound: COc1cc(Nc2ncc3c(n2)-c2ccc(Cl)cc2C(c2c(F)cccc2OC)=NC3)ccc1C(=O)O [alisertib]
Summary of the method: as §1

[4] = compound: COc1cc2nc(-c3cc(F)ccc3O)nc(N[C@@H]3CNC[C@H]3C(C)(C)O)c2cc1OC
Summary of the method: as §1

gefitinib = compound: COc1cc2ncnc(Nc3ccc(F)c(Cl)c3)c2cc1OCCCN1CCOCC1 [gefitinib]
Summary of the method: as §1

Measured: log2 fold change

BPGM (UniProt P07738)
inactive: alvocidib 0.034 | Tubastatin A 0.09 | [1] -0.023 | defactinib -0.023 | [2] 0.014 | encorafenib -0.162 | [3] 0.097 | alisertib -0.058 | [4] -0.022 | gefitinib 0.012

BARD1 (UniProt Q99728)
inactive: alvocidib 0.016 | Tubastatin A -0.05 | [1] 0.019 | defactinib 0.213 | [2] 0.03 | encorafenib -0.014 | [3] -0.029 | alisertib -0.027 | [4] -0.035 | gefitinib 0.005

BOD1L1 (UniProt Q8NFC6)
inactive: alvocidib -0.028 | Tubastatin A 0.04 | [1] 0.024 | defactinib 0.013 | [2] 0.008 | encorafenib 0.011 | [3] 0.008 | alisertib -0.009 | [4] 0.02 | gefitinib -0.007

BCL7A isoform 2 (UniProt Q4VC05)
inactive: alvocidib 0.042 | Tubastatin A -0.022 | [1] -0.035 | defactinib -0.06 | [2] -0.006 | encorafenib 0.071 | [3] 0.014 | alisertib -0.033 | [4] 0.014 | gefitinib 0.023

BANP (UniProt Q8N9N5)
inactive: alvocidib 0.001 | Tubastatin A -0.07 | [1] -0.002 | defactinib 0.087 | [2] 0.016 | encorafenib -0.028 | [3] 0.054 | alisertib 0.052 | [4] 0.009 | gefitinib -0.018

BAG5 isoform 2 (UniProt Q9UL15)
inactive: alvocidib -0.059 | Tubastatin A -0.045 | [1] -0.01 | defactinib 0.016 | [2] -0.032 | encorafenib -0.009 | [3] 0.066 | alisertib -0.071 | [4] 0.003 | gefitinib 0.021

BET1L (UniProt Q9NYM9)
inactive: alvocidib 0.033 | Tubastatin A 0.072 | [1] 0.171 | defactinib 0.163 | [2] -0.013 | encorafenib 0.079 | [3] -0.011 | alisertib -0.004 | [4] 0.012 | gefitinib -0.26

BRCA2 (UniProt P51587)
inactive: alvocidib -0.106 | Tubastatin A -0.068 | [1] -0.008 | defactinib 0.076 | [2] 0.285 | encorafenib -0.014 | [3] 0.047 | alisertib -0.006 | gefitinib -0.16

B4GALT1 (UniProt P15291)
inactive: alvocidib 0.018 | Tubastatin A 0.053 | [1] -0.038 | defactinib 0.009 | encorafenib -0.132 | [3] 0.067 | alisertib -0.059 | [4] 0.014 | gefitinib -0.039

BBS7 (UniProt Q8IWZ6)
inactive: alvocidib 0.027 | Tubastatin A -0.123 | [1] -0.028 | defactinib -0.212 | [2] -0.042 | encorafenib 0.024 | [3] 0.091 | alisertib 0.123 | gefitinib -0.016

BCAS1 isoform 2 (UniProt O75363)
inactive: alvocidib -0.014 | Tubastatin A -0.167 | encorafenib 0.18 | [3] 0.149 | alisertib -0.037 | [4] 0.09 | gefitinib 0.004

BIRC6, A0A3B3IUB9
inactive: alvocidib 0.081 | Tubastatin A -0.037 | [1] -0.028 | defactinib 0.138 | [2] -0.156 | encorafenib 0.115 | [3] -0.023 | [4] -0.186

BEND3 (UniProt Q5T5X7)
inactive: alvocidib -0.11 | Tubastatin A -0.164 | [1] -0.057 | defactinib 0.015 | [2] -0.233 | encorafenib -0.007 | [3] 0.086 | [4] 0.023

BORA (UniProt Q6PGQ7)
inactive: alvocidib -0.042 | Tubastatin A 0.01 | [1] 0.037 | defactinib -0.056 | [2] -0.074 | encorafenib -0.042 | [3] -0.005 | alisertib 0.061 | gefitinib 0.021

BLOC1S2 (UniProt Q6QNY1)
inactive: alvocidib -0.037 | [1] -0.009 | defactinib 0.006 | [2] 0 | encorafenib 0.032 | [3] -0.061 | alisertib 0.024 | [4] -0.031 | gefitinib 0.066

BPIFA1 (UniProt Q9NP55)
inactive: alvocidib -0.135 | Tubastatin A 0.062 | [1] 0.781 | defactinib 0.024 | [2] -0.23 | encorafenib -0.139 | [3] 0.093 | alisertib 0.022 | gefitinib -0.018

BAHD1 (UniProt Q8TBE0)
inactive: alvocidib -0.021 | Tubastatin A 0.011 | [2] 0.061

BBC3 (UniProt Q9BXH1)
inactive: alvocidib -0.056 | Tubastatin A 0.037 | [1] -0.092 | defactinib -0.109 | [2] -0.039 | encorafenib 0.016 | [3] -0.169 | [4] 0.035

2 records picked at random from those above, as already listed:
BAHD1 (UniProt Q8TBE0)
inactive: alvocidib -0.021 | Tubastatin A 0.011 | [2] 0.061

BORA (UniProt Q6PGQ7)
inactive: alvocidib -0.042 | Tubastatin A 0.01 | [1] 0.037 | defactinib -0.056 | [2] -0.074 | encorafenib -0.042 | [3] -0.005 | alisertib 0.061 | gefitinib 0.021

(continued)

BRD3 (UniProt Q15059)
inactive: alvocidib -0.059 | [1] 0.105 | defactinib 0.017 | [2] 0.09 | encorafenib -0.016 | [3] 0.018 | alisertib -0.003 | [4] -0.015 | gefitinib -0.15

BAHCC1 (UniProt Q9P281)
inactive: alvocidib -0.569 | [1] -0.135 | defactinib -0.208 | [2] -0.054 | encorafenib 0.038 | [3] -0.024 | alisertib 0.085 | [4] 0.076 | gefitinib 0.095

BORCS7 (UniProt Q96B45)
inactive: alvocidib 0.125 | [1] -0.18 | defactinib 0.17 | alisertib -0.106 | [4] 0.051 | gefitinib -0.297

BCL7A (UniProt Q4VC05)
inactive: alvocidib 0.032 | Tubastatin A -0.082 | [2] 0.029 | [4] -0.034

BAZ1A (UniProt Q9NRL2)
inactive: alvocidib -0.078 | Tubastatin A 0.006 | [1] -0.067 | defactinib -0.07 | [2] -0.033 | encorafenib -0.072 | [3] 0.15 | alisertib 0.009 | gefitinib 0.038

BCL9L (UniProt Q86UU0)
inactive: alvocidib -0.049 | Tubastatin A 0.205 | [1] -0.015 | defactinib 0.093 | [2] 0.087 | alisertib 0.005 | [4] 0.012 | gefitinib -0.051
